For the assay, the target named is T1, soluble full-length recombinant ADAMTS13 (UniProt Q76LX8).
T1 sequence: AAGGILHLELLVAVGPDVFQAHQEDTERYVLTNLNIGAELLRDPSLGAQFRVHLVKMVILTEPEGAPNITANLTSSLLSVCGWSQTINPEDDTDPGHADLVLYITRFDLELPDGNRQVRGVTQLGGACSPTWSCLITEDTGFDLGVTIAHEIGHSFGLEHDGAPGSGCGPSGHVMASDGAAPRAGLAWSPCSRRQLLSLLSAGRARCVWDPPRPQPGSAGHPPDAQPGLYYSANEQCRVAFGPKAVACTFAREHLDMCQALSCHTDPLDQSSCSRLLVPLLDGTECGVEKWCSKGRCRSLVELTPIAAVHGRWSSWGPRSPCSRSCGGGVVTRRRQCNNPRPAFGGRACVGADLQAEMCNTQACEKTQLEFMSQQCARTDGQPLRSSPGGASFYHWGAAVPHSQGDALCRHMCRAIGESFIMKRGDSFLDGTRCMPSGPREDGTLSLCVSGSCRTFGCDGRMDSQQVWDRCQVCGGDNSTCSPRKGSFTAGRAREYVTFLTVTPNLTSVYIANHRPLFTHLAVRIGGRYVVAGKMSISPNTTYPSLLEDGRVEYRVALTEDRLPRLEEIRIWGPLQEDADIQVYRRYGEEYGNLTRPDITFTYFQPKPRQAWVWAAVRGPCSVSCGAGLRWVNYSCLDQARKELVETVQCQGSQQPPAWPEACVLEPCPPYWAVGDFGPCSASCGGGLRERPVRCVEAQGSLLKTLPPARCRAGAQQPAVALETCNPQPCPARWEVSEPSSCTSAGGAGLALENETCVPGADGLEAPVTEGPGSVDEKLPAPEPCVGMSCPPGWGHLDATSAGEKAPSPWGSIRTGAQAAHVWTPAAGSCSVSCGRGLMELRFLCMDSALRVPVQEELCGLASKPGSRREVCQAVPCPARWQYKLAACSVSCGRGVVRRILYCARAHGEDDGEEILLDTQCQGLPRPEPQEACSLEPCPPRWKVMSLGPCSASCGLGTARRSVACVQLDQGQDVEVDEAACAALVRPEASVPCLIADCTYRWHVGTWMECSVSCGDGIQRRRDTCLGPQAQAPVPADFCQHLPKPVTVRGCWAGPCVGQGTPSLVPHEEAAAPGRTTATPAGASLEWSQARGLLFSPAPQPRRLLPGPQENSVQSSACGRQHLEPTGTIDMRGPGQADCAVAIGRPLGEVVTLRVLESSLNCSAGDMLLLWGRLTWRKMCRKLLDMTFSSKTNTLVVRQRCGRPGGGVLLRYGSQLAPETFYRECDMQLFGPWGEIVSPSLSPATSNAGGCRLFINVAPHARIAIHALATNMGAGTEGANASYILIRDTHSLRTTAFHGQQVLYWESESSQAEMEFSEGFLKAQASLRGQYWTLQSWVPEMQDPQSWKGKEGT
The assay can be described thus: SPR; Biacore T200; ADAMTS13, MDTCS (or fibrinogen) immobilised on CM5 by amine coupling (500-1000 RU); analytes 0-7 µM (or 0-3.5 µM) with 5 mM AEBSF and 10 µM VFKck; 20 mM HEPES-NaOH, 150 mM NaCl, pH 7.4, 0.01% Tween-20, 10 mM CaCl2, 10 µM ZnCl2; 20 µl/min, 25 °C; equilibrium responses fitted to a one-site binding model; both purified. On the technique in general: SPR reads the build-up and loss of mass on a sensor chip optically.

Protein sequences, listed by entry. Tags and fused reporters are not part of them. Residues count along the entry.
UniProt O76061, residues 25-302: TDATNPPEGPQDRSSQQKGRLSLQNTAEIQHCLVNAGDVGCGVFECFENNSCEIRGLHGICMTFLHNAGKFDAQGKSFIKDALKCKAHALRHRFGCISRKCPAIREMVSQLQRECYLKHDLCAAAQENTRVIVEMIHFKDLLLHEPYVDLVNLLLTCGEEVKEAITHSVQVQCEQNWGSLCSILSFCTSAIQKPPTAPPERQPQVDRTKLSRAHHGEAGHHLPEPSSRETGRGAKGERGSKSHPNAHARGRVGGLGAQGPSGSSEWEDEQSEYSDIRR

No constants are given. Whether binding was seen depends on the method and setting.

Turning to “Stanniocalcin-2 (recombinant) (from UniProt O76061 25-302)”, the binding entry was “no binding (tested: 1.3 µM)”.

Source of the values: PMC11032339.
